Data reported in paper PMC4031079.
These are yes or no findings as the source states them, for the method shown.

The chains behind the UniProt entries cited, without tags or fusion partners. Residues count along the entry.
UniProt P48740, residues 20-699: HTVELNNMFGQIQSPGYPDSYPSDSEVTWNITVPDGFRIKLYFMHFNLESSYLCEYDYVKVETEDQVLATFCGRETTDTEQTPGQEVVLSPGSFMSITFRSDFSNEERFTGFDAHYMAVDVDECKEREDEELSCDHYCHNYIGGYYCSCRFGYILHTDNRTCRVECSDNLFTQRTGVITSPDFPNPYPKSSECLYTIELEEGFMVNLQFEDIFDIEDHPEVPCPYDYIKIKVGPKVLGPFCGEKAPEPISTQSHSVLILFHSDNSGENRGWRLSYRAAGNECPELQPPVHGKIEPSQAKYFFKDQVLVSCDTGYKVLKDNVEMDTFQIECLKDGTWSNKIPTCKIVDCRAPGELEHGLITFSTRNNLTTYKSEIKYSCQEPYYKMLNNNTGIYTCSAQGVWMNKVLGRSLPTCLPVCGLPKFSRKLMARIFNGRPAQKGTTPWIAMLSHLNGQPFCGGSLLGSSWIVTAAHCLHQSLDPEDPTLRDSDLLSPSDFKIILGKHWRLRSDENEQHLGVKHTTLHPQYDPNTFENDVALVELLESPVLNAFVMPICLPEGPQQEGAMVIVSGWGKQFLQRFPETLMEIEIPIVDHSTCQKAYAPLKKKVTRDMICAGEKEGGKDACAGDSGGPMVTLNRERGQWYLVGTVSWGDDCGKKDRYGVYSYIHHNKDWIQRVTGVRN
UniProt O00187, residues 16-686: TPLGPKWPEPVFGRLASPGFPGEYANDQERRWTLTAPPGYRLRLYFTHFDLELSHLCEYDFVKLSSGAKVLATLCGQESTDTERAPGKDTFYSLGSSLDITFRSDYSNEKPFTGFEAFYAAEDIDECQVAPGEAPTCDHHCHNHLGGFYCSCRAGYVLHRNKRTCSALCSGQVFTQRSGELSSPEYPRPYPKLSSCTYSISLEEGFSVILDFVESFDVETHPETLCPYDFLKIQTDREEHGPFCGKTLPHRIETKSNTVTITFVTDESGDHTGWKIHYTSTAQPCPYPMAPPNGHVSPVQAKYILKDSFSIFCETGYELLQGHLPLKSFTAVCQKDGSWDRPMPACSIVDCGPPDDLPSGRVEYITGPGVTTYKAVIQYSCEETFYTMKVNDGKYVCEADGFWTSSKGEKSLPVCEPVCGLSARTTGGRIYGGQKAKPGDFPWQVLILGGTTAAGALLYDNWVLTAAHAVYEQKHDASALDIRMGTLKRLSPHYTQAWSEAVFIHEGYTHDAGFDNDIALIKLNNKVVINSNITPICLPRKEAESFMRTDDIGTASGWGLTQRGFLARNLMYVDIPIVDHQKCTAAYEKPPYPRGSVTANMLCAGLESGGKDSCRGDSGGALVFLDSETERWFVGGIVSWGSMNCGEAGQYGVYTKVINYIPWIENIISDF

Target: T1, scabies mite inactive serine protease paralogue SMIPP-S D1 (Sarcoptes scabiei)
T1 sequence: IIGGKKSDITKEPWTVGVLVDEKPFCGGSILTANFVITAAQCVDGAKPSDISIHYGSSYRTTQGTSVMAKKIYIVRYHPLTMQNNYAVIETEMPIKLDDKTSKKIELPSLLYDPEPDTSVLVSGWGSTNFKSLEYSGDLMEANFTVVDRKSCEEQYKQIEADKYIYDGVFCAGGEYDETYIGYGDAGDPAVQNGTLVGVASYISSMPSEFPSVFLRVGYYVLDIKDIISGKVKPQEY
Test: ELISA; both purified

Substance	binding
recombinant MASP-1 (from UniProt P48740) (enzyme)	no binding (tested: 1 µg/ml)
recombinant MASP-2 (from UniProt O00187) (enzyme)	no binding (tested: 1 µg/ml)
